The record followed here is article PMC12407373, “Kindlin Regulates Mechanosensitive Activation and Adhesion Assembly of Integrin beta6” (Advanced Science, 2025).

Chains of the proteins cited; added tags and fusions are not shown. Residues count along the entry.
UniProt P18564, residues 731-788: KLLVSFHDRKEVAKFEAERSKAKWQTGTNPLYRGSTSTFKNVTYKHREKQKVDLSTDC
UniProt P05556, residues 752-798: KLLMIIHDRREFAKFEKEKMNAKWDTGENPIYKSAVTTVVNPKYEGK
UniProt A0A8C2NBB4: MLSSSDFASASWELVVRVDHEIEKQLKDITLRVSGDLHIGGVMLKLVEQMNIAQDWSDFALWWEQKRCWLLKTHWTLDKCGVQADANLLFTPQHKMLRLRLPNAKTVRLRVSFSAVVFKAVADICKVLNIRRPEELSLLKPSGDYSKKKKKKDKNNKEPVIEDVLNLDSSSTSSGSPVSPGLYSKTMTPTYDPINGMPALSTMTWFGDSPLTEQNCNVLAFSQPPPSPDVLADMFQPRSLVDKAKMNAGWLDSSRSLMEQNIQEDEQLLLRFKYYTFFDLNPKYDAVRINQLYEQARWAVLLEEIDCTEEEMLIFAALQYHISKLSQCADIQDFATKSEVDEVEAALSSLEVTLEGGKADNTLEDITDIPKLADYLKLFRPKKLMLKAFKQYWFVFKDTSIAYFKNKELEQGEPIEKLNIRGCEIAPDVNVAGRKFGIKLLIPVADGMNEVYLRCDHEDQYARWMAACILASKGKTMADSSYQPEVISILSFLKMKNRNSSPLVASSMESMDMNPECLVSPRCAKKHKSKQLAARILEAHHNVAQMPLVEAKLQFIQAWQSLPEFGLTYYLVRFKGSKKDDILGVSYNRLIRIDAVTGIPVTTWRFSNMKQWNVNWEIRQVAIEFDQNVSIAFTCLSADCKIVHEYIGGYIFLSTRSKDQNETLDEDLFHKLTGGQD
UniProt A0A8C2MVT2: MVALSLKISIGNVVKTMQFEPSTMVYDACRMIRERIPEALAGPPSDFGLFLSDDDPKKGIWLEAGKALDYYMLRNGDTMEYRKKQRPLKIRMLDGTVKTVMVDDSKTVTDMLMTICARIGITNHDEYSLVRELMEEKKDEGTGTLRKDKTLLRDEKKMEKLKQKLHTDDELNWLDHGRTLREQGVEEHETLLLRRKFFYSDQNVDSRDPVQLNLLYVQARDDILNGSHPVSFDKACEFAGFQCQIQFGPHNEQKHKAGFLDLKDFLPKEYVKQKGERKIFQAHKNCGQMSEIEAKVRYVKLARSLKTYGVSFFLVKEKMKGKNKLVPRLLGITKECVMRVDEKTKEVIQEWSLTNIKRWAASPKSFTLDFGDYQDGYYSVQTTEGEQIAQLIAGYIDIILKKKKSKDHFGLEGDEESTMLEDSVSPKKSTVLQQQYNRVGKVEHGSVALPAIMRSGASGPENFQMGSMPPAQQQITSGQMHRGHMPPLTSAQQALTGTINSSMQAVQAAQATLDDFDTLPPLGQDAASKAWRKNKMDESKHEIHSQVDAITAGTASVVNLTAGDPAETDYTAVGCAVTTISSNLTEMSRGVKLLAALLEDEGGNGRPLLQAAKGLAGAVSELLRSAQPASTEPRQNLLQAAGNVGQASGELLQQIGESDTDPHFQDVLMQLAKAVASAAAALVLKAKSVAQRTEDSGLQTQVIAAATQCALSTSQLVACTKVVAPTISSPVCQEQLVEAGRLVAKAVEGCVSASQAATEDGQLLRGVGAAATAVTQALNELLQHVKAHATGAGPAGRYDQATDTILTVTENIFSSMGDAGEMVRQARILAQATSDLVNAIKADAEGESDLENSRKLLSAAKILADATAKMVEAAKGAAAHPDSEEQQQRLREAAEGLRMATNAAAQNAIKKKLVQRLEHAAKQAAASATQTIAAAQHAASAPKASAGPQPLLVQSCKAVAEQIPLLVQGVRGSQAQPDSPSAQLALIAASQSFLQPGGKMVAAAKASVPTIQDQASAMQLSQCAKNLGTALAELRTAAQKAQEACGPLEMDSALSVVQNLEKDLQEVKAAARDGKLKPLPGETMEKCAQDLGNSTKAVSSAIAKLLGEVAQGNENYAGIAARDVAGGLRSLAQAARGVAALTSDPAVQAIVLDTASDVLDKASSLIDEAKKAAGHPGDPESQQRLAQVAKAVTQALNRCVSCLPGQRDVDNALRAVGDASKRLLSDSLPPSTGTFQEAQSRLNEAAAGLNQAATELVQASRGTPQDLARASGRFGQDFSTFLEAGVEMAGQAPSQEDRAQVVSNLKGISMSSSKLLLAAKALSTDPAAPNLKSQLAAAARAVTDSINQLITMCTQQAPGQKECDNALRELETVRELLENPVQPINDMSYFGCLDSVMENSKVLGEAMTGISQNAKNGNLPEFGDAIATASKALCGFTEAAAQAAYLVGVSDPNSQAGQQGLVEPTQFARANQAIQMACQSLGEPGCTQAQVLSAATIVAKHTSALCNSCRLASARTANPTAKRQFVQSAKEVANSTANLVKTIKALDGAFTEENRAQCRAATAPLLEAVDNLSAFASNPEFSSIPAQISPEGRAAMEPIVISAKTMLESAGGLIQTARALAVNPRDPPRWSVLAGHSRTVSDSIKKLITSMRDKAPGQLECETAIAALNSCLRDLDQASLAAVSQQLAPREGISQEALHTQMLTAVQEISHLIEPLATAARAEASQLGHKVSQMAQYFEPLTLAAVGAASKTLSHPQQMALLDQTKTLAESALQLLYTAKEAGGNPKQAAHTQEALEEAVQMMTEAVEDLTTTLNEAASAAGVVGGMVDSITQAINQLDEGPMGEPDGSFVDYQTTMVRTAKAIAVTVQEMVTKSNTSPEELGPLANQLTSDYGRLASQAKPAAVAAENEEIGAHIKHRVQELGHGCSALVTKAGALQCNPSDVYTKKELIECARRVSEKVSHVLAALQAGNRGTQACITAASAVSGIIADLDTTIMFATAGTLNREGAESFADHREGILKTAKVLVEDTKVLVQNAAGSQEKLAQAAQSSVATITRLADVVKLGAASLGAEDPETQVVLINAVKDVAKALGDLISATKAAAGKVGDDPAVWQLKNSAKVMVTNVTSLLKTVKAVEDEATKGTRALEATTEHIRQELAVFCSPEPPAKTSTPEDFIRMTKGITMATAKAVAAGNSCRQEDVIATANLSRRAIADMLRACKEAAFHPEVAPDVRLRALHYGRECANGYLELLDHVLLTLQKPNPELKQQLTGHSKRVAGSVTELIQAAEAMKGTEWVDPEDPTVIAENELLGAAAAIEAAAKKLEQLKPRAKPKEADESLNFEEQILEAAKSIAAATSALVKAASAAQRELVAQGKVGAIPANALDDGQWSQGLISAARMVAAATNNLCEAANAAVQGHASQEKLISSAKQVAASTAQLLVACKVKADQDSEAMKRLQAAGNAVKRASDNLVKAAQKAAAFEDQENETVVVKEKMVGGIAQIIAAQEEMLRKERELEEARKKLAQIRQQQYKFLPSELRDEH

These are yes or no findings as the source states them, for the method shown. In cells and extracts the contact can be indirect. Some binding calls cover weakened binding; strength is not graded here.

The target of assay [1] is cytoplasmic tail peptide of wildtype integrin β6, N-terminally biotinylated (UniProt P18564). As to the kind of experiment: pull-down; N-terminally biotinylated synthetic integrin tail peptides as bait, CHO-B2 cell lysate as prey, Pierce Biotinylated Protein Interaction Pull-Down Kit; detection by western blot; only the target purified. Background: Immunoblotting shows a protein as a band on a membrane.

The target in assay [2] is cytoplasmic tail peptide of wildtype integrin β1, N-terminally biotinylated (UniProt P05556). The description is as above.

With “kindlin1 (from UniProt A0A8C2NBB4 1-677)”, the binding entry in assay [1] and in assay [2] was “binds” in each case.
As to talin1 (from UniProt A0A8C2MVT2 1-2541), the binding result in assay [1] and in assay [2] was “binds” in each case.
